Our source for the binding values is patent US20260265392A1.

These are yes or no findings as the source states them, for the method shown. Some binding calls cover weakened binding; strength is not graded here.

For this assay, the target named is recombinant protein (SUM)5-TRAIL. Nature of the assay: laser confocal imaging of SJSA-1 cells with (SIM)6-R4L (Red) and (SUM)5-TRAIL (Green), 100 nM each (combination 3, FIG. 2C); co-localization.

B1: recombinant protein (SIM)6-R4L (ligand)
chain: MKHHHHHHHENLYFQGAMSSKVDVIDLTIESSSDEEEDPPAKRGGSGGSGGSGGSKVDVIDLTIESSSDEEEDPPAKRGGSGGSGGSGGSKVDVIDLTIESSSDEEEDPPAKRGAMKGGSGGSGGSGGSMSSKVDVIDLTIESSSDEEEDPPAKRGGSVGSGGSGGSKVDVIDLTIESSSDEEEDPPAKRGGSGGSGGRGGSKVDVIDLTIESSSDEEEDPPAKRGAMRCWGGSGGSGGSGGSMGMCYRKCRGGRRWCYQKCGGSGGSGGSGGS
modifications: Alexa594 label in the imaging experiment (site not stated)
On to B1, for which the binding entry was “binds”.
